Patent US20140235820A1, “METHODS AND COMPOSITIONS FOR MODULATING THE Wnt PATHWAY” (Genentech, Inc., priority 2010, published 2014)
No constants are given. Whether binding was seen depends on the method and setting. Some results given as binding are weak or reduced against the parent protein; the word gives no strength.

The chains behind the UniProt entries cited, without tags or fusion partners. Residues count along the entry.
UniProt O75581, residues 20-325: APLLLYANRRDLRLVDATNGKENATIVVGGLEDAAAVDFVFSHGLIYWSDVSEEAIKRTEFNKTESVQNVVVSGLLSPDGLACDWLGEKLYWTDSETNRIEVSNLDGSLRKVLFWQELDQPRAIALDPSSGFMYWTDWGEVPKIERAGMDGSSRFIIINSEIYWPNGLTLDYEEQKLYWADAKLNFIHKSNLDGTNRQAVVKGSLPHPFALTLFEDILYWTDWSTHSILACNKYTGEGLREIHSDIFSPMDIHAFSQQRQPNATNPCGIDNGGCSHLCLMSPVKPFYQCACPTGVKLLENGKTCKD

Target: human LRP6 construct E1 (amino acids A20-D325) (human) (UniProt O75581)
Test: synthetic peptides, competition IC50 (FIG. 19)

SNSVKFYA (N-terminal acetyl; C-terminal amide) [Ac-SNSIKFYA-am with Val in place of Ile]
binding: binds
